From article PMC4206449
Results are given in words; binding and its absence hold for the method and conditions named. In cells and extracts the contact can be indirect.

Protein sequences, listed by entry. Tags and fused reporters are not part of them.
UniProt Q16637: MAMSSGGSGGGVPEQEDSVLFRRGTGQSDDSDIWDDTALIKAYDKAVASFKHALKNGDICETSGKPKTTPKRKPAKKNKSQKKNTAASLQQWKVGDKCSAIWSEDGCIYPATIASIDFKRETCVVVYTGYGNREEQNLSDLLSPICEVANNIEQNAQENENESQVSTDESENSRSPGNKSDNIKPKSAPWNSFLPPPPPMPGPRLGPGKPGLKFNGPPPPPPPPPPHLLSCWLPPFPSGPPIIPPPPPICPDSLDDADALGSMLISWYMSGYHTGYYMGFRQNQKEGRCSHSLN

Biological target: T1, hnRNP R (endogenous, HEK293T cells) (human (endogenous in HEK293T)) (UniProt O43390)
T1 sequence: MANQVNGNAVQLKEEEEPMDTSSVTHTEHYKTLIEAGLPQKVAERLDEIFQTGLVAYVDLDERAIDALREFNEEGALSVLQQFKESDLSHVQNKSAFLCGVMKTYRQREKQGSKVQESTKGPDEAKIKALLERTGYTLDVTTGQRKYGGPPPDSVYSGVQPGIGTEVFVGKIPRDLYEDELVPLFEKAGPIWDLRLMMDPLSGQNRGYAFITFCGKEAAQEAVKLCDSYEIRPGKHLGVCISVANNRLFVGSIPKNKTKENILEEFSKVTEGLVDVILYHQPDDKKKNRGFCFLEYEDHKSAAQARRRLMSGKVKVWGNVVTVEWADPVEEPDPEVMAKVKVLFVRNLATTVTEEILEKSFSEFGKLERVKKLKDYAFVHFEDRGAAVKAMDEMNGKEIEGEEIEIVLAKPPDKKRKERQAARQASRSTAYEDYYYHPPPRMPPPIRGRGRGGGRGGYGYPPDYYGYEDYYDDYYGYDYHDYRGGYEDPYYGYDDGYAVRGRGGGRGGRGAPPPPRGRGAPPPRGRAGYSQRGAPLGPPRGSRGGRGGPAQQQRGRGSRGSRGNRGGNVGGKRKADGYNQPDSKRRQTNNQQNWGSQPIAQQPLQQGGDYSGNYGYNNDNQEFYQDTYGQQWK
Test: co-IP; cytosolic and soluble nuclear fractions of HEK293T cells; IP of Smn or hnRNP R, Western blot

Substance: Smn (endogenous, HEK293T cells) (from UniProt Q16637 1-294)
- binding: no binding
